Assay results taken from paper doi:10.1101/078337.
These are yes or no findings as the source states them, for the method shown. Binding seen in cells or lysates may run through a third protein. A yes stands for co-enrichment or nearness to the bait. Other partners may have been found. Tags and fused reporters may be left off the sequences shown.

Chains of the proteins cited; added tags and fusions are not shown.
UniProt Q24311: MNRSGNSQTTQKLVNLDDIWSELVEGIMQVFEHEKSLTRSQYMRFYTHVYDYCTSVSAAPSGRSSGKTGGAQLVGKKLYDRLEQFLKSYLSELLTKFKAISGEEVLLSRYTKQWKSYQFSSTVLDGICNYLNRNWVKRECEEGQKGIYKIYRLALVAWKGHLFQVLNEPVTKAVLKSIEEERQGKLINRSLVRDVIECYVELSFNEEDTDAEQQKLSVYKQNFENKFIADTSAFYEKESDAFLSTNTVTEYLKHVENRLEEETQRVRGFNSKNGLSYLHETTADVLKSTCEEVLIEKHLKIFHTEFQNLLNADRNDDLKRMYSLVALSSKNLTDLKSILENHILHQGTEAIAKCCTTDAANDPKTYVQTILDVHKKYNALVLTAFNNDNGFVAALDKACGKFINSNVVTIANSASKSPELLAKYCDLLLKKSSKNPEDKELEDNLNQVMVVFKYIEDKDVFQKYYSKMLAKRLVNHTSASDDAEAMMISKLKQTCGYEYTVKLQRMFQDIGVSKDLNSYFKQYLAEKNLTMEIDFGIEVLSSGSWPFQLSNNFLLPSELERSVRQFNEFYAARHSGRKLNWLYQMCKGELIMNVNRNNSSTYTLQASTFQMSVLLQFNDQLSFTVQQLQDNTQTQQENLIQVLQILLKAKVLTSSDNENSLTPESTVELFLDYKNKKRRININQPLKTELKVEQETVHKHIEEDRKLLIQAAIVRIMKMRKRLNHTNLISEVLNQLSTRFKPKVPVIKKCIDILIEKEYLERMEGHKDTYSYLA
UniProt P18431: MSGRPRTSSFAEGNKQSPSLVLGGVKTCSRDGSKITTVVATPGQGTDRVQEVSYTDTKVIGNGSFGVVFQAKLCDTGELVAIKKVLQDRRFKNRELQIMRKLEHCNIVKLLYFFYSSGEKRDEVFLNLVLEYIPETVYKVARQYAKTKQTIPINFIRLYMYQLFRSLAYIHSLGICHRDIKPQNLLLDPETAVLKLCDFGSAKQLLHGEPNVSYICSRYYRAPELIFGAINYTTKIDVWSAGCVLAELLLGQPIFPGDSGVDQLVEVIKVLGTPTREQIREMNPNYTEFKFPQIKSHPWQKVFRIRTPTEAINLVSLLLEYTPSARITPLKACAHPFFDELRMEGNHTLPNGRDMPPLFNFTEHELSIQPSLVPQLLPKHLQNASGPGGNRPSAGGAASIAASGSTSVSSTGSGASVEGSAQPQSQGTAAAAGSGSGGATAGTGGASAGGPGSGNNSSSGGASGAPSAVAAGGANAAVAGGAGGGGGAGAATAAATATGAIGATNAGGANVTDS
UniProt O77430: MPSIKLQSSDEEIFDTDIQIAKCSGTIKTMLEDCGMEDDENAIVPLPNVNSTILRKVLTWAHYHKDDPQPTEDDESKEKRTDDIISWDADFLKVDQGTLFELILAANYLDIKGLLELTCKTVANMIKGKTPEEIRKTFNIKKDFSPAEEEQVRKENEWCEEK

T1: Flag-SMN (Drosophila SMN from the Flag-Smn^WT transgene) (Drosophila melanogaster) (UniProt Q9VV74)
T1 sequence: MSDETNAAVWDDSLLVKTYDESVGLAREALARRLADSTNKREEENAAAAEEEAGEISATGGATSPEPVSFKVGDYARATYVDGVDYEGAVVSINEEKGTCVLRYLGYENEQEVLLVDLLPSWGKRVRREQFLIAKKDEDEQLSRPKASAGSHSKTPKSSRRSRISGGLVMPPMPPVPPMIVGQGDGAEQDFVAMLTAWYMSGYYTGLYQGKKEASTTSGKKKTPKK


Molecular target: T1, Flag-SMN (Drosophila SMN from the Flag-Smn^WT transgene) (Drosophila melanogaster)
Experiment: affinity purification with mass spectrometry

Molecule | binding
Cullin 1 (Cul1), endogenous in Drosophila embryos (from UniProt Q24311 1-774) | binds
Shaggy (Sgg), the Drosophila GSK3β orthologue (from UniProt P18431 1-514) (enzyme) | binds
Skp1-related A (SkpA), endogenous in Drosophila embryos (from UniProt O77430 1-162) | binds
U7-specific Sm-like heterodimer Lsm10/11 (complex) | binds
supernumerary limbs (Slmb), endogenous in Drosophila embryos | binds

Molecular target: T1, Flag-SMN (Drosophila SMN from the Flag-Smn^WT transgene) (Drosophila melanogaster)
Experiment: affinity purification with mass spectrometry
Remark: another data set of the same source

Molecule | binding
Gemin2 (Drosophila) (protein, UniProt Q9VVX0 1-245) MQHEPEDQTFQLQALEICEPDSSFDPQKPPESGEEYLMHMFYERKRCPAVVTKRSSKIRNNTGNTTLEMLDNPELPPFKCLLPTPEWRDEQVKSFQAARSQVLVLRKELANNNYDQSGEPPLTSDQEKWKEFCRNQQPLLSTLLHLTQNDLELLLEMLSKWLQDPNTTVDLLHDVWLARWLYATLVCLHLPLEPHVFSTLRYIARTCIHLRNQLKEDEVQRAAPYNLLLTLTVQVFAQNDFKDYI | binds
Rigor mortis (Gemin5 orthologue) (protein, UniProt Q86BY9 1-1235) MNSQVMYHNVPTPPGNVSLAAAAPDGGLLYAGIRCINYISAPPANGEQPQVVTMSTRINILALDVSPMWGLGNGGPTKPFAIVGDDLSVQVWDCALGEAVIGHKAHQHQHEARDVRVVHHTTNSVLMSYLANGNILSMDASDLVIYCVASNTYCRRSTFISPRNHQLTMVRCSPYNDNLFAVGTAMGNVLVCDLRKMNIVYKFHGHKAPICGLAWREVPAAEDEKTNNLALSAEEWRSRNGGQEEKPKTKPPPLTKSKAAESDDPFDIYNFDHLEYEFGAPIAERRRKSSEDCGGEFVGLEKPAGAAVLDFVEACESVKAELLASRQEDKTQHVEVTLHDCEPTKPTGPLSDASTISNKNDASDSTEGSLEVIQYSSSSDDAVIVDGEAAKPKREVLHHIYHQAEVHASGTPQTKSEPQSNLQVVPAISAETISLTSVNSTHLETLLVSIDGDEVMMIWNTNTGAHAGKNYSKSKTAGKLNNVYWLNNHVIVSLSRHQLFFWSVEFERKMLRYKISKDKSHSCHLQDIVSFACDSSKEMIWLCRNNRQIGMMNPKTGRMADFYGTVAFGVRAMAECPDDMNKIALGCSDRRVAFFDISKLTTSCLPIDSVYVSSNVYCLAWSPNCLELAFGTFDGTVGILDVERMKVKTHLRTPHKKEVYSLVWQDHFIYFIVNRVLGFFDLRKSKIEPTIVNCISRPSYLSIRDSFLFVGTDDGLLQIHERDSGMEKSWSPFIRQSALFARYVTDIAWCPLDSNKFAVSGNDRSVYVMEFQPTERNWKTLHTFTANTEKASITSMRWSHTQKHLLLTFHIEGKVCLWNCNAPEKPPLTITYHCPMWCGMFLPTNENIIMCSGKALSVELIDIKDALEGDEKSICPKVDALLNVKWASKSLTQPYAPVLTAAEKKRQRRDQRKAAAKLEVDVANKDQKKIQESVTAVIDNPTNDKCTQETPVEEMLEALSLDKEQNNRSAKECPKCKEQSPDSFTHSRTCLYLTQKELNKSALEKLAIVLTEDSAKIDKSVLISKLFSSKVMAKELIATELTNLKHSNTKDIAPLCLAMSTFKLREELEQHIANKTLTERHVSLAPSVSFTLWQDCCRAYAKQMEEKGYIMHAATYLFSQGMQSEAIKLFLANEYYKEALVHARICLPATDPLIKTVINNWLEHLEGTGNFAAAALICVLDNEMLRGYSYLRKYRNCTPEIADLMDQIKRIGQLGGVLDGCAPNEPIHNGSTAEH | binds
Bendless (Ben) (enzyme, UniProt P35128 1-151) MSSLPRRIIKETQRLMQEPVPGINAIPDENNARYFHVIVTGPNDSPFEGGVFKLELFLPEDYPMSAPKVRFITKIYHPNIDRLGRICLDVLKDKWSPALQIRTILLSIQALLSAPNPDDPLANDVAELWKVNEAEAIRNAREWTQKYAVED | binds
